{"source": "paper PMC11393453", "about": "“Phosphorylation of tau at a single residue inhibits binding to the E3 ubiquitin ligase, CHIP” (Nature Communications, 2024)", "tested_on": "MAPT mRNA", "assay": "qPCR of MAPT mRNA", "format": "cell-based", "conditions": "Fig 3H", "data": [{"substance": "tau: full length (FL) 0N4R splice isoform of tau, unmodified; recombinant or expressed in cells", "values": [{"measurement": "MAPT mRNA 2^-ddCt", "setting": "replicate 1", "result": 1}, {"measurement": "MAPT mRNA 2^-ddCt", "setting": "replicate 2", "result": 1.171}, {"measurement": "MAPT mRNA normalized to FL tau", "setting": "replicate 2", "result": 93.4819}, {"measurement": "MAPT mRNA 2^-ddCt", "setting": "replicate 3", "result": 0.9257}, {"measurement": "MAPT mRNA normalized to FL tau", "setting": "replicate 3", "result": 99.0612}]}]}
